The values that follow come from publication PMC8581416.

By UniProt entry, the sequences of proteins in these tests, tags left out.
UniProt Q8VEK3: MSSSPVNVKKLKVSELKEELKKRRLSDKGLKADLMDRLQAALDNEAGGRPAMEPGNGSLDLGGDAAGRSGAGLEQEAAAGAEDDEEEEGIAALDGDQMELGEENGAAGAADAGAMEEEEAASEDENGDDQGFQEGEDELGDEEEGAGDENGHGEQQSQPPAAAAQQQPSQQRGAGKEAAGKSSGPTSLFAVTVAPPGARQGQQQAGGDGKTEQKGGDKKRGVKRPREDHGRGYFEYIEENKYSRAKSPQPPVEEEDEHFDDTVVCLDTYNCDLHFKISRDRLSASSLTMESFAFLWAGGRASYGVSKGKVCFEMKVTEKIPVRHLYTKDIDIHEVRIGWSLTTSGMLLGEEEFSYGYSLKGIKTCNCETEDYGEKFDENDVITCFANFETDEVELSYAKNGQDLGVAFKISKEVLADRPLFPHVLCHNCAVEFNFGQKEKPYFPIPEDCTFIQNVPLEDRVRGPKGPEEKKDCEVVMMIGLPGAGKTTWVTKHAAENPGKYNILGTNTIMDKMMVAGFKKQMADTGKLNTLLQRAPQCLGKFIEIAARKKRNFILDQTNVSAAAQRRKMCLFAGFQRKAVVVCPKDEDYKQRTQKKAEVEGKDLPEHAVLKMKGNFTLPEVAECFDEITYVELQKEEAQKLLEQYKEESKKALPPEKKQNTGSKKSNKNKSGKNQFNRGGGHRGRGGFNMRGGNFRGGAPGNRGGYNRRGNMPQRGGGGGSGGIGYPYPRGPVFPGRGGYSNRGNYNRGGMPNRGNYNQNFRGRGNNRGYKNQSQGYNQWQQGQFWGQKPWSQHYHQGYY
UniProt P22561: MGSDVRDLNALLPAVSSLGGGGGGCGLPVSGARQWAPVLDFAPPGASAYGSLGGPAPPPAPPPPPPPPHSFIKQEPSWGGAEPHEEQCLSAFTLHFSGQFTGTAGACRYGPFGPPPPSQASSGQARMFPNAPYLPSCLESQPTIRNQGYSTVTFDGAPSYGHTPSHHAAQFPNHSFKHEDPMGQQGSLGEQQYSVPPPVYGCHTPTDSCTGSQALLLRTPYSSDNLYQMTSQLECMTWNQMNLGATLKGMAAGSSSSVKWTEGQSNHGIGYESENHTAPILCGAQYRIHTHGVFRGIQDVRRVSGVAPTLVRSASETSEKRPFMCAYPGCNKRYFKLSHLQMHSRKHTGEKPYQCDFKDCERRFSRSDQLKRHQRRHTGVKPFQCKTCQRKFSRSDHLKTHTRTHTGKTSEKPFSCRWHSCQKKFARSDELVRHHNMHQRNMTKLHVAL

Results are given in words; binding and its absence hold for the method and conditions named. Binding seen in cells or lysates may run through a third protein. A yes stands for co-enrichment or nearness to the bait. Other partners may have been found.

The experiment deals with hnRNPU (mouse (endogenous in testis)) (UniProt Q8VEK3). Kind of experiment: affinity purification with mass spectrometry; immunoprecipitation with an anti-hnRNPU antibody from mouse testes, followed by LC/MS.

As for “Wilms' tumor 1 (WT1) (from UniProt P22561 1-449)”, the binding entry is “binds”.
